# The whole screen tested about 340,000 compounds, of which about 4,500 (1.3%) were called active. This list was built around the results that the source calls inconclusive (neither active nor inactive); the mix of calls is not that of the screen. Calls follow the shape of the dose curve; as a rule, active = well fitted inhibition curve with a large enough effect; inconclusive = small, poorly fitted or top-dose-only effect, or another doubt; inactive = no such curve, though single readings can be large or run the other way. A potency beside an inconclusive call is a rough fit, not a confirmed value. Some structures have more than one record in an assay (separate samples or runs), and their calls can disagree.
# Molecular target: DNA polymerase beta (Homo sapiens) (UniProt P06746)
# Experiment: qHTS Assay for Inhibitors of DNA Polymerase Beta
# Conditions: Pol beta primer extension/strand displacement, fluorescence kinetic; activity change, negative = inhibition: at 114 µM (top of the series)
# In short: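 Enzyme-only controls used 10 nM Pol beta; buffer lacking enzyme served as negative control. Compound preincubated 15 min, then 50 nM substrate added; 0 and 10 min reads at room temperature.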
# % is scaled to controls: 0 for no effect and ±100 for the full control effect; potency is read from the fitted curve at half-maximal effect.
SMILES,Potency,"activity change, negative = inhibition"
Cc1cc(C)cc(NC(=O)CSc2nc3c(c(=O)[nH]2)CN(Cc2ccc(F)cc2)CC3)c1,inactive,
CCc1ccc(N(C2C=CS(=O)(=O)C2)S(=O)(=O)c2ccc(C)cc2)cc1 (stereo not given),"inconclusive: 2.82 µM [inhibitor, partial curve]",
O=C(COc1ccccc1)Nc1nnc(-c2ccc(Cl)cc2)o1,"inconclusive: 0.447 µM [inhibitor, full curve, poor fit]",
COc1ccc(Cc2nn3c(Cn4nnc5ccccc54)nnc3s2)cc1,active: 35.5 µM,
N[C@@H](Cc1cc(I)c(Oc2ccc(O)c(I)c2)c(I)c1)C(=O)O,active: 20 µM,
CC(=O)c1ccc(N2CCN(S(=O)(=O)c3ccc(-c4coc(C)n4)cc3)CC2)cc1,active: 44.7 µM,
COc1ccc(OCc2nc(-c3ccc(F)c(F)c3)cs2)cc1,"inconclusive: 100 µM [inhibitor, single point]",
COc1cc(NS(=O)(=O)c2ccc(NC(=O)NC3CCCCC3)cc2)nc(OC)n1,"inconclusive: 39.8 µM [inhibitor, single point]",
CCC(=O)N1CCCc2ccccc21,,inconclusive: -99.7% [inhibitor]
CCOC(=O)c1[nH]c(CSc2nnc(-c3ccc(OC)cc3)o2)c(C(=O)OCC)c1C,"inconclusive: 0.282 µM [inhibitor, full curve]",
COc1cc2cc3c(N)c(C(=O)Nc4sc(C)c(C)c4C#N)sc3nc2cc1OC,active: 7.94 µM,
CN(C)CCCN(C(=O)/C=C/c1cccs1)c1nc2ccc(F)cc2s1,,inactive: 1.31%
CN(CCC#N)C(=O)COC(=O)c1ccc2[nH]c3c(c2c1)CCCC3,"inconclusive: 0.158 µM [inhibitor, full curve, poor fit]",
COC(=O)c1c(NC(=O)CN(c2ccc(C)c(C)c2)S(C)(=O)=O)sc2c1CCCC2,"inconclusive: 89.1 µM [inhibitor, single point]",
O=C(/C=C/c1ccc(-c2ccccc2)cc1)NCc1cccnc1,active: 50.1 µM,
COc1ccc(-c2cnc(C)o2)cc1S(=O)(=O)Nc1ccc(NC(C)=O)cc1,"inconclusive: 89.1 µM [inhibitor, single point]",
CC1CCN(S(=O)(=O)c2ccc(NC(=O)Cn3nnc(-c4ccccc4)n3)cc2)CC1,active: 39.8 µM,
Cc1cccc(CN2C(=O)c3ccccc3Sc3ccc(C(=O)NC4CCCCC4)cc32)c1,,inactive: -1.24%
COc1ccc(NC(=O)[C@H](C)NC(=O)C2CCN(S(=O)(=O)c3ccc(C)cc3)CC2)cc1OC,,inconclusive: -57.8% [inhibitor]
COc1ccc(-c2cc(C(=O)OC3CCOC3=O)c3ccccc3n2)cc1 (stereo not given),"inconclusive: 22.4 µM [inhibitor, partial curve]",

# 3 entries already listed, ordered by SMILES length, falling:
SMILES,Potency,"activity change, negative = inhibition"
COc1ccc(NC(=O)[C@H](C)NC(=O)C2CCN(S(=O)(=O)c3ccc(C)cc3)CC2)cc1OC,,inconclusive: -57.8% [inhibitor]
COc1ccc(-c2cnc(C)o2)cc1S(=O)(=O)Nc1ccc(NC(C)=O)cc1,"inconclusive: 89.1 µM [inhibitor, single point]",
COc1ccc(OCc2nc(-c3ccc(F)c(F)c3)cs2)cc1,"inconclusive: 100 µM [inhibitor, single point]",
